{"sequences": {"note": "The chains behind the UniProt entries cited, without tags or fusion partners. Residues count along the entry.", "UniProt Q6UB28, residues 44-335": "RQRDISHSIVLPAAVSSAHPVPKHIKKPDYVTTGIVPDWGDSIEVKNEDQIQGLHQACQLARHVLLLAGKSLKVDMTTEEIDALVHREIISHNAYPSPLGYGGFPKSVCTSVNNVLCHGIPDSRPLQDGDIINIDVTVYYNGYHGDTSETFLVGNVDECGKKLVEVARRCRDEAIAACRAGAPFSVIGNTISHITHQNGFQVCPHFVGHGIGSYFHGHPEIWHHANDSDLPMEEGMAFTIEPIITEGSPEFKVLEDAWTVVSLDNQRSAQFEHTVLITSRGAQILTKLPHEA"}, "source": "paper PMC10724148", "target": "human mitochondrial methionine aminopeptidase MetAP1D (residues 44-335) (human) (UniProt Q6UB28)", "test": "SEC; HiLoad 16/600 Superdex 200 pg; 25 mM Tris-HCl pH 8.0, 100 mM sodium chloride, 0.5 mM TCEP; peak compared with standard proteins; both purified", "note": "No constants are given. Whether binding was seen depends on the method and setting.", "data": [{"substance": "human mitochondrial methionine aminopeptidase MetAP1D (residues 44-335) (from UniProt Q6UB28 44-335) (enzyme)", "values": [{"measurement": "binding", "value": "no binding"}]}]}
